# Results deposited as PubChem BioAssay AID686938 (Drosophila RNAi Screening Center, 2013)
# Assay: 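Knock-downs reducing store-operated calcium influx in Drosophila cells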 (primary screen)
# Cells: Drosophila S2R+ cells
# Knock-down reagent: long dsRNA against Drosophila genes, about 0.25 µg dsRNA per well, roughly 10,000 cells
# Time to read-out: 5 days of knock-down before the calcium assay
# Treatment: thapsigargin (SERCA pump blocker) to empty calcium stores; entry signal taken 4 min after adding it
# Measured: 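Per-well fluo-4 fluorescence in two replicates, unnormalised, measured in resting cells and 4 min after store depletion by the SERCA blocker thapsigargin; ratio of the two present in few wells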
# Scale: calcium entry signal: higher = stronger calcium signal after store depletion; resting calcium signal: higher = higher resting calcium signal
# Active means: 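Hit if the duplicate-averaged plate z-score for entry over resting signal is under −3; wells with weak total dye signal (Fmax z < −2) or more than 5 off-targets removed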
# Calls: active = strongly reduced calcium entry; inactive = no strong reduction
# The screen tested about 23,000 reagents; shown is an unselected part of those with a known target gene and a result. In the full data, 75 (0.33%) are marked active. 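Raw plate signals without normalisation; calls rest on plate z-scores that were not deposited; ratio present for only 364 wells.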 A number with no mark means an inactive call. Reagent sequences are not shown. The record does not give: the dose of the treatment.
gene knocked down,amplicon,"calcium entry signal, replicate 1 (fluorescence units)","calcium entry signal, replicate 2 (fluorescence units)","resting calcium signal, replicate 1 (fluorescence units)","resting calcium signal, replicate 2 (fluorescence units)"
CG34040,DRSC03902,2.57e7,4.86e7,1.18e7,2.00e7
CG7322,DRSC20036,4.66e7,3.71e7,2.16e7,1.57e7
CG42582 (retired record),DRSC20675,2.95e7,3.18e7,1.54e7,1.48e7
Rab39,DRSC17827,3.70e7,3.85e7,1.71e7,1.85e7
CG6984,DRSC07013,2.16e7,2.57e7,1.01e7,1.18e7
Marf1,DRSC03747,5.55e7,5.07e7,2.79e7,2.09e7
Marf1,DRSC03774,3.64e7,6.96e7,1.65e7,2.69e7
CG30380,DRSC05069,3.11e7,5.46e7,1.60e7,2.17e7
Mfap1,DRSC08154,3.05e7,2.75e7,1.87e7,1.66e7
Gale,DRSC08234,4.87e7,3.48e7,2.39e7,1.81e7
CG14160,DRSC10161,2.67e7,3.45e7,1.41e7,1.54e7
Gr43a,DRSC06658,3.34e7,2.94e7,1.65e7,1.48e7
ics,DRSC01878,3.53e7,,1.62e7,
Or98a,DRSC16774,2.70e7,4.48e7,1.41e7,2.03e7
CG4631,DRSC02766,5.01e7,3.05e7,2.12e7,1.52e7
CG4631,DRSC22194,3.59e7,4.84e7,1.64e7,2.77e7
FANCI,DRSC06416,3.61e7,2.78e7,1.66e7,1.56e7
CG17560,DRSC15242,2.25e7,2.42e7,1.16e7,3.73e7
CG13297,DRSC09971,2.88e7,3.91e7,1.39e7,1.59e7
His-Psi:CR31754,DRSC22051,2.24e7,4.77e7,1.32e7,2.45e7
AhcyL2,DRSC14107,2.86e7,4.19e7,1.50e7,5.61e7
DptA,DRSC07404,3.78e7,4.81e7,1.64e7,2.27e7
epsilonCOP,DRSC02003,5.44e7,,2.35e7,
meru,DRSC09400,3.53e7,3.52e7,1.57e7,1.58e7
meru,DRSC09899,3.53e7,5.10e7,1.73e7,2.00e7
meru,DRSC10215,4.18e7,5.97e7,2.00e7,2.29e7
ITP,DRSC04222,4.84e7,4.52e7,2.37e7,2.12e7
CG17991,DRSC15294,3.73e7,6.31e7,2.05e7,2.59e7
CG5250,DRSC15752,2.68e7,3.63e7,3.67e7,1.56e7
CG31365,DRSC15610,3.70e7,3.75e7,1.79e7,1.69e7
eloF,DRSC15162,3.64e7,4.37e7,1.77e7,2.19e7
Spn42Dd,DRSC05024,2.33e7,2.51e7,1.01e7,1.20e7
Spn42Dd,DRSC22060,3.14e7,4.16e7,1.59e7,2.45e7
CG31957,DRSC00207,2.33e7,3.43e7,1.32e7,1.60e7
CG42269,DRSC10670,2.13e7,3.06e7,1.05e7,1.26e7
CG42269,DRSC10672,2.37e7,3.16e7,1.09e7,1.41e7
Dnali1,DRSC16158,3.05e7,3.59e7,1.41e7,1.59e7
CAH13,DRSC06128,3.91e7,4.43e7,1.91e7,1.95e7
Top1,DRSC20295,1.92e7,2.58e7,1.09e7,1.13e7
Snmp2,DRSC10228,3.54e7,6.23e7,1.75e7,2.55e7
Snmp2,DRSC10843,3.86e7,5.64e7,1.70e7,2.47e7

Quoted from the listing for reference:
gene knocked down,amplicon,"calcium entry signal, replicate 1 (fluorescence units)","calcium entry signal, replicate 2 (fluorescence units)","resting calcium signal, replicate 1 (fluorescence units)","resting calcium signal, replicate 2 (fluorescence units)"
CG6984,DRSC07013,2.16e7,2.57e7,1.01e7,1.18e7
Marf1,DRSC03747,5.55e7,5.07e7,2.79e7,2.09e7
Marf1,DRSC03774,3.64e7,6.96e7,1.65e7,2.69e7
CG30380,DRSC05069,3.11e7,5.46e7,1.60e7,2.17e7
